Assay results from US20210230131A1, “POLYAMINO BIARYL COMPOUNDS AND THEIR USE” (INSERM (INSTITUT NATIONAL DE LA SANTÉ ET DE LA RECHERCHE …, priority 2018, published 2021).
Some results were stated once for a whole list of compounds, not compound by compound.

The chains behind the UniProt entries cited, without tags or fusion partners. Residues count along the entry.
UniProt P56817, 46-501: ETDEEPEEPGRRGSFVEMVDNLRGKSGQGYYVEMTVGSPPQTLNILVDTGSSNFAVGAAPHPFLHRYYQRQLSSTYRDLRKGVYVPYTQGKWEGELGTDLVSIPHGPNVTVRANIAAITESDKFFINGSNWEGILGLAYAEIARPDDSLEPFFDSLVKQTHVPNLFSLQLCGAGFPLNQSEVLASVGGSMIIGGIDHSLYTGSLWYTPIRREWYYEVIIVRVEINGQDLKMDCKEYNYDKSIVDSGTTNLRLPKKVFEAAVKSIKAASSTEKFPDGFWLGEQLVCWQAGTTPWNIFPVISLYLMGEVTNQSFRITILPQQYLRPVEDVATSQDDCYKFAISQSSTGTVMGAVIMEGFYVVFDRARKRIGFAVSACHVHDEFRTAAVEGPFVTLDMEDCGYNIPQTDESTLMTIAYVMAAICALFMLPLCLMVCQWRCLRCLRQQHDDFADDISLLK

Target: T1, human recombinant BACE-1 protein (Homo sapiens, UniProt P56817)
T1 construct: Eurofins Cerep (contract laboratory that ran the assay)
Experiment: β-secretase in vitro activity assay
Type: biochemical
Details: concentrations of 1 and 10 μM; 60 min incubation at rt; found totally inactive

Row | Structure (SMILES) | % inhibition of BACE-1 [%]
1 | CN(C)Cc1ccccc1-c1ccc(NCCCN2CCCCC2)c(OCCN2CCCCC2)c1 [Compound 30, 4-(2-[(Dimethylamino)methyl]phenyl)-2-[2-(piperidin-1-yl)ethoxy]-N-[3-(piperidin-1-yl)propyl]aniline] | < 9
2 | CN(C)Cc1ccccc1-c1ccc(NCCCN2CCCCC2)c(OCCC2CCCCC2)c1 [Compound 31, 3-(2-cyclohexylethoxy)-2′-((dimethylamino)methyl)-N-(3-(piperidin-1-yl)propyl)-[1,1′-biphenyl]-4-amine] | < 9
